Binding data for one molecule are collected here from PMC7397868, “System-wide analyses of the fission yeast poly(A)+ RNA interactome reveal insights into organization and function of RNA–protein complexes”.

No constants are given. Whether binding was seen depends on the method and setting. Some binding calls cover weakened binding; strength is not graded here.

The test addresses T1, S. pombe Pch1 (S. pombe) (UniProt O74627).
T1 sequence: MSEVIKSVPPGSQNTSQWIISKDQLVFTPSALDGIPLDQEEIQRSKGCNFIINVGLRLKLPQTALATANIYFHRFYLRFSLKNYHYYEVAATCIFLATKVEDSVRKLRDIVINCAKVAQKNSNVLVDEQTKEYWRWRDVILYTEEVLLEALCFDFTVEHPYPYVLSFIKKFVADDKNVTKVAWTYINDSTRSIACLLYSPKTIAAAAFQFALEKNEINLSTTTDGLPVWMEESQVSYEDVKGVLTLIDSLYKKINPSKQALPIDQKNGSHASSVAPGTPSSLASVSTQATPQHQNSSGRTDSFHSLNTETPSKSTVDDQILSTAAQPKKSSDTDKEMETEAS
Put plainly: co-purification (Ni-NTA affinity, then gel filtration); Cdk9 and His-tagged Pch1 coexpressed in Sf9 cells; lysate in 25 mM Tris-HCl pH 8.0, 500 mM NaCl, 10 mM imidazole applied to Ni-NTA resin, eluted with 250 mM imidazole; His-tag cleaved with TEV; Superdex 200 in 20 mM HEPES 7.5, 150 mM NaCl; in the cold.

B1: S. pombe Cdk9 (enzyme, UniProt Q96WV9 1-591)
chain: MKRSSSVSVEDEKSARRKLDVVPKLHFVGCSHLTDYHLMEKLGEGTFGEVYKSQRRKDGKVYALKRILMHTEKEGFPITAIREIKILKSIKHENIIPLSDMTVVRADKKHRRRGSIYMVTPYMDHDLSGLLENPSVKFTEPQIKCYMKQLFAGTKYLHDQLILHRDLKAANLLIDNHGILKIADFGLARVITEESYANKNPGLPPPNRREYTGCVVTRWYRSPELLLGERRYTTAIDMWSVGCIMAEMYKGRPILQGSSDLDQLDKIFRLCGSPTQATMPNWEKLPGCEGVRSFPSHPRTLETAFFTFGKEMTSLCGAILTLNPDERLSASMALEHEYFTTPPYPANPSELQSYSASHEYDKRRKREQRDANSHAFEQTANGKRQFRFMTRGPSDPWYGIRRPNYNSQPQYQRGSYNREGGNMDRSRNVNYQPKRQQNFKPLTSDLPQKNSEFSETNAMNQTSNHSHADGQRYYRPEQDRSQRLRNPSDYGRQGRQSSQSQQPAWNVSSRYQNNSKVQTTSRASENADTNKTQHNIKYIDSYVPEYSIARQSANQKTNEQHPSSTSLHQQSTSDLKSPSFHENSNVDDTPK
On to B1, for which the binding result was “binds”.
